Laboratory results as given in PubChem BioAssay AID2551 (National Center for Advancing Translational Sciences (NCATS), 2010).
Out of some 310,000 compounds screened, about 17,000 (5.5%) were called active. This list was built around the results that the source calls inconclusive (neither active nor inactive); the mix of calls is not that of the screen. The call rests on the fitted dose curve; in most records, active means well fitted inhibition curve with a large enough effect; inconclusive means small, poorly fitted or top-dose-only effect, or effect the other way; inactive means no such curve, though single readings can be large or run the other way. Where the call is inconclusive, the potency comes from a doubtful curve fit.

Amino acid sequences for entries named in this document (tags omitted). A change or cut given only in a name is not applied to a line headed by its entry.
UniProt P51450: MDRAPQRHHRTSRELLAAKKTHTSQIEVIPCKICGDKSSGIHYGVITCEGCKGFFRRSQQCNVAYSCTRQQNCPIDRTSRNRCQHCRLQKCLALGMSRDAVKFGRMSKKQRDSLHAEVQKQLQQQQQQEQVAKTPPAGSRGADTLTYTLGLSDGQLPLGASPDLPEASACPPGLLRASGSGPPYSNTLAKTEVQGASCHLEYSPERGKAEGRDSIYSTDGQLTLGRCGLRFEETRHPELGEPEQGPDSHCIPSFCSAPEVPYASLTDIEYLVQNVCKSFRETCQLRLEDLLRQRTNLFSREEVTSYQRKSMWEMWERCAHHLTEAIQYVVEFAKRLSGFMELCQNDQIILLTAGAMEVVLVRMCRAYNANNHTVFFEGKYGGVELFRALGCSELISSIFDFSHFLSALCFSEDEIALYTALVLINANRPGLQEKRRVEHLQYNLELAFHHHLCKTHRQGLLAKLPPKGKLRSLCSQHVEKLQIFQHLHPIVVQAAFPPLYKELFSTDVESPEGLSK

biological target: Nuclear receptor ROR-gamma (Mus musculus) (UniProt P51450); experiment: qHTS for inhibitors of ROR gamma transcriptional activity; conditions: Drosophila S2 Gal4-RORgamma UAS-luciferase reporter, 20 h; activity change, negative = inhibition: at 53.6 µM (top of the series); further: nearly all actives have a fitted effect of over 60% in size
Procedure, shortened: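 Schneider cells (Drosophila), stable Gal4 DBD–ROR gamma + UAS-luc; 1 hr cmpd preincubation; Cu2+ induction 700 uM final; 20 hr ambient; luminescence.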
On the % scale 0 is the no-effect control and ±100 the full control effect; potency means the concentration at half of the fitted maximal effect.

Potency, inconclusive:
O=C(C[n+]1ccc(C(=O)N/N=C/c2ccc(OCc3ccccc3)cc2)cc1)c1ccccc1 25.1 µM [inhibitor, single point]
O=C(CSc1ncnc2c1cnn2-c1ccccc1Cl)N1CCN(C(=O)c2ccco2)CC1 5.62 µM [inhibitor, single point]
CCOc1cc(C(=S)N2CCOCC2)ccc1OC(=O)/C=C/c1ccc(OC)c(OC)c1 14.1 µM [activator, single point]
O=C(/C=C/c1cccc(Oc2ccccc2)c1)N1CCOCC1 17.8 µM [activator, partial curve]
COc1ccc(C(=O)Nc2ccc(OCC(F)(F)C(F)F)c(C(F)(F)F)c2)cc1OC 25.1 µM [activator, single point]
COc1cccc(NS(=O)(=O)c2cc(C)sc2C)c1 35.5 µM [inhibitor, single point]
COc1ccc(C(=O)COC(=O)/C=C/c2ccc(S(=O)(=O)Nc3cccc(S(N)(=O)=O)c3)cc2)cc1 35.5 µM [inhibitor, single point]
O=C(CSc1nnc(Cc2ccccc2)n1C1CCCCC1)N1CCOCC1 12.6 µM [activator, partial curve]
CN1/C(=C\C(=O)Nc2ccc(Cl)cc2)C(C)(C)c2ccccc21 35.5 µM [activator, single point]
O=C(NCCc1ccc(Cl)cc1)C1CCN(S(=O)(=O)c2ccc(Br)s2)CC1 3.98 µM [activator, full curve, poor fit]
O=C(CSc1nnc(NCc2ccccc2)s1)c1ccco1 10 µM [inhibitor, partial curve]
COc1ccc(/C=N/Nc2ccccn2)c(OC)c1OC 22.4 µM [inhibitor, single point]
CCNS(=O)(=O)c1ccc(CCC(=O)N2CCN(c3cc(Cl)ccc3C)CC2)cc1 17.8 µM [activator, partial curve]
O=S(=O)(NCc1cccs1)c1cccc(S(=O)(=O)N2CCCCC2)c1 5.62 µM [inhibitor, single point]
O=C(COc1ccccc1)N1CCN(C(=O)c2ccc([N+](=O)[O-])cc2)CC1 15.8 µM [inhibitor, single point]
Cc1ccc(SCC(=O)Nc2cc([N+](=O)[O-])ccc2O)cc1 35.5 µM [inhibitor, single point]
COc1ccccc1/C=N\Nc1cn[nH]c(=O)c1Cl 12.6 µM [inhibitor, partial curve]
O=C(Nc1cccn(Cc2c(F)cccc2Cl)c1=O)NC1CCCCC1 14.1 µM [activator, single point]
CCOC(=O)C1=C(N)N2C(=O)CSC2=C(C(=O)OC)C1 2.82 µM [inhibitor, single point]
O=C1NC(=S)N/C1=C/c1cccc([N+](=O)[O-])c1O 35.5 µM [inhibitor, single point]
CC(C)(C)OC(=O)N1CCN(c2ccc([N+](=O)[O-])cc2)CC1 12.6 µM [activator, single point]
CC(NC(=O)CN1CCOCC1)c1ccccc1 (stereo unspecified) 6.31 µM [inhibitor, partial curve]
Cc1ccccc1-c1nnc(NC(=O)CSc2nc3ccccc3s2)s1 35.5 µM [inhibitor, single point]
CCc1ccc(NC(=O)N(Cc2ccco2)C(C)c2cccs2)cc1 (stereo unspecified) 35.5 µM [activator, single point]
CCCCCOc1ccc(C2NC(=O)NC2=O)cc1 (stereo unspecified) 22.4 µM [activator, single point]
CCCNC(=O)c1nnsc1Sc1ccc(Cl)cc1 3.16 µM [activator, partial curve, poor fit]
O=C(NCC(=O)c1ccccc1)OCc1ccc([N+](=O)[O-])cc1 35.5 µM [activator, single point]
CCN1CCN(C2=C(NS(=O)(=O)c3ccc(NC(C)=O)cc3)C(=O)c3ccccc3C2=O)CC1 10 µM [inhibitor, partial curve]
C=CCOc1ccc(C=Nc2ccc(OC)cc2)c(O)c1 17.8 µM [inhibitor, single point]
O=[N+]([O-])c1cc(Cl)ccc1N1CCN(c2ccccc2O)CC1 15.8 µM [activator, partial curve, poor fit]
CN(C)S(=O)(=O)c1ccc(C(=O)NC2CCCc3ccccc32)cc1 (stereo unspecified) 35.5 µM [activator, single point]
COc1ccc(NC(=O)CSc2nnnn2C2CCCCC2)cc1 17.8 µM [activator, single point]
Cc1ccccc1Nc1nc(-c2ccccc2)c(C(=O)Nc2cccnc2)s1 5.62 µM [activator, partial curve]
O=C(c1ccco1)N1CCN(c2c([N+](=O)[O-])nn(-c3cccc(Cl)c3)[n+]2[O-])CC1 10 µM [inhibitor, partial curve]
CCn1c(CNc2ccc(Cl)cc2)nnc1SCc1ccc(C)cc1 35.5 µM [activator, single point]
CCCNC(=O)Cn1sc2nc(C)cc(C)c2c1=O 15.8 µM [inhibitor, single point]
O=C(Nc1cccc(Oc2ccc(C(=O)O)c(C(=O)O)c2)c1)c1ccc(-c2ccccc2)cc1 15.8 µM [inhibitor, single point]
Cc1cc(Cl)ccc1N=C1N=C(N)c2ccccc21 11.2 µM [inhibitor, single point]
CCSc1cnn(-c2ccccc2)c(=O)c1SCC 28.2 µM [inhibitor, single point]
COc1ccccc1NS(=O)(=O)c1ccc(C)c(C(N)=O)c1 35.5 µM [activator, single point]
O=C(Nc1ccc(Br)cc1)c1cccc(-n2cnnn2)c1 0.141 µM [activator, full curve, poor fit]
CCC(C(=O)Nc1nc(C)c(C)s1)c1ccccc1 (stereo unspecified) 31.6 µM [inhibitor, single point]
Cc1cc(Nc2cccc(Cl)c2)nc(NCc2ccccc2)n1 28.2 µM [inhibitor, single point]
CCN=C1S/C(=C\c2cc(OCC)c(O)cc2Br)C(=O)N1CC 35.5 µM [activator, single point]
Cc1cc(C(=O)COC(=O)c2ccc(Br)o2)c(C)n1Cc1ccco1 3.16 µM [activator, full curve]

Potency, active:
Cc1nc2c(-c3ccccc3)c(C)[nH]n2c(=O)c1Cc1ccccc1 2.82 µM
CCCSc1nnc(Sc2nnnn2-c2ccccc2)s1 1.58 µM
O=C(NC(=S)N1CCN(c2ccc(Cl)cc2[N+](=O)[O-])CC1)c1cccs1 0.282 µM
C/C(=N\NC(=O)c1ccccc1NC(=O)c1ccc(Cl)cc1)c1ccncc1 0.562 µM
O=C1OCCC1Sc1nnc(-c2ccc3c(c2)OCO3)o1 (stereo unspecified) 10 µM
O=C(CNCc1ccccn1)Nc1ccc([N+](=O)[O-])cc1C(=O)Nc1ccccc1F 20 µM
Cc1ccccc1Cn1c(Cc2ccccc2)nc2ccccc21 5.62 µM
CCOC(=O)c1c(NC(=S)NC(=O)c2cnn(CC)c2)sc2c1CCC(C)C2 (stereo unspecified) 11.2 µM
Clc1ccccc1-c1nc(Nc2ccncc2)c2ccccc2n1 11.2 µM
CC(C)C[C@H](NC(=O)c1[nH]cnc1C(=O)N[C@@H](Cc1ccccc1)C(=O)OC(C)(C)C)C(=O)OCc1ccccc1 7.94 µM

Part of the list above in order of molecular weight, largest number first:
Potency, active:
CC(C)C[C@H](NC(=O)c1[nH]cnc1C(=O)N[C@@H](Cc1ccccc1)C(=O)OC(C)(C)C)C(=O)OCc1ccccc1 7.94 µM
O=C(CNCc1ccccn1)Nc1ccc([N+](=O)[O-])cc1C(=O)Nc1ccccc1F 20 µM
CCCSc1nnc(Sc2nnnn2-c2ccccc2)s1 1.58 µM
Clc1ccccc1-c1nc(Nc2ccncc2)c2ccccc2n1 11.2 µM
Cc1ccccc1Cn1c(Cc2ccccc2)nc2ccccc21 5.62 µM

Following part.

Potency, inactive:
O=C(NCCCN1CCCC1=O)c1ccc2c(=O)n(-c3ccc(F)cc3)c(=S)[nH]c2c1
O=C(CCC1CCCN(C(=O)C2=CCCC2)C1)N1CCN(c2ccccn2)CC1 (stereo unspecified)
CC(C)Oc1ccc(C(=O)NC(=S)Nc2ccc(Cl)c(C(=O)O)c2)cc1
CCOc1cccc(N)c1
Clc1cccc(-c2nnc(SC/C=C/c3ccccc3)n2Cc2ccco2)c1
COc1cc(/C=N/NC(=O)CCN2CCN(Cc3ccccc3)CC2)cc(OC)c1OC
C=CCNC(=S)NCc1ccc(CNC(=S)NCC=C)cc1
COc1c(Cl)cc(C(=O)Nc2ccccc2-c2ccccc2)cc1Cl
O=C(CN1c2ccccc2S(=O)(=O)c2ccccc21)NCc1ccc(F)cc1
O=C1N[C@@H](Cc2ccccc2)C(=O)N2CCCC12 (stereo partly specified)
COC(=O)N/N=C/c1ccccc1Cl
NNC(=O)c1cncn1-c1ccc(F)cc1
O=C(CSc1c(Cl)cccc1Cl)N1CCC(c2nc3ccccc3s2)CC1
Cc1noc(C)c1COC(=O)/C=C/c1ccc(Cl)cc1
N#Cc1cccc(-c2nc(N3CCNCC3)c3ccccc3n2)c1

Fetched by compound from above, 2 records:
Potency, inactive:
O=C(CCC1CCCN(C(=O)C2=CCCC2)C1)N1CCN(c2ccccn2)CC1 (stereo unspecified)
COC(=O)N/N=C/c1ccccc1Cl

Following part:

Activity change, negative = inhibition, inconclusive:
CC1=CCC(C(=O)O)(C(=O)N/N=C/c2cccs2)C(c2ccc([N+](=O)[O-])cc2)C1 (stereo unspecified) -46.8% [inhibitor]
